Measured data: PubChem BioAssay AID602196 (INSERM, 2012)

- Assay: 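Genes whose knock-down alters cisplatin killing of lung cancer cells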
- Cell system: human A549 lung cancer cells
- Reagents: siRNA pair against human genes
- Duration: 48 h transfection before cisplatin; time from cisplatin to read-out not stated
- Challenge: cisplatin at a dose killing half of control-siRNA cells; exact dose and duration not given
- Read-out: 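Shift in cisplatin death relative to control siRNA, from -50 (all cells die) to +50 (no cells die); siRNAs harmful on their own scored 0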
- Direction: two-siRNA summed score (-2 to +2): higher = both siRNAs protect from cisplatin killing; -2 means both sensitise; mean protection from cisplatin (shift in death) and protection from cisplatin (shift in death), siRNA C and protection from cisplatin (shift in death), siRNA D: higher = protection from cisplatin killing
- Call rule: 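siRNAs harmful alone (LDH or WST-1) get 0; others get +1 for less and -1 for more cisplatin killing; genes are active when the two siRNAs give the same sign, summing to ±2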
- Calls: active = both siRNAs shift cisplatin killing the same way; inactive = no consistent shift, or siRNA harmful alone
Shown is one part, drawn at random, of about 23,000 reagents. Over the whole deposit, 455 (2%) got an active call. 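Active includes both protection and sensitisation; some change values fall well beyond the stated -50 to +50 range.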 A number with no mark means an inactive call. The record does not give: the amount of reagent.

Target gene | two-siRNA summed score (-2 to +2) | mean protection from cisplatin (shift in death) (%) | protection from cisplatin (shift in death), siRNA C (%) | protection from cisplatin (shift in death), siRNA D (%)
CHSY3 (GeneID 337876) | 0 | -0.8 | 3.7 | -5.4
CEACAM21 (GeneID 90273) | 0 | 2.1 | 0.6 | 3.7
ZNF267 (GeneID 10308) | 1 | 15.3 | 3.6 | 27.1
DARS2 (GeneID 55157) | 0 | 3.7 | 4.6 | 2.8
TOM1L2 (GeneID 146691) | 0 | 6 | 11.3 | 0.6
LOC441731 | 0 | -1.5 | 4.5 | -7.6
LOC402165 | 0 | -5.2 | 7.7 | -18
KCNN2 (GeneID 3781) | 0 | 1.5 | -2.3 | 5.4
SLC22A23 (GeneID 63027) | 1 | 12.4 | 18.3 | 6.4
FOXR1 (GeneID 283150) | 0 | 1.7 | 10.1 | -6.6
N4BP3 (GeneID 23138) | 0 | 2.8 | -5 | 10.5
OSTN (GeneID 344901) | -2 (active) | -20 | -15.1 | -24.8
NDC1 (GeneID 55706) | 0 | 10.4 | 9.7 | 11
CNOT9 (GeneID 9125) | 0 | 11.8 | 17.9 | 5.7
EBF2 (GeneID 64641) | 0 | 5.8 | 2.7 | 9
LOC390927 | 0 | 3.8 | 2.6 | 5
PUS7 (GeneID 54517) | 0 | 12.8 | 19.5 | 6.1
LOC388586 | 1 | 15.8 | 0.8 | 30.8
PARS2 (GeneID 25973) | 0 | 3.4 | 1.5 | 5.2
RAVER2 (GeneID 55225) | -1 | -17.1 | -4.5 | -29.7
LOC441366 | 0 | -0.1 | 7 | -7.2
HASPIN (GeneID 83903) | -1 | -16.9 | -15.1 | -18.7
LOC440251 | 0 | 10.5 | 12.1 | 8.8
KIAA0586 (GeneID 9786) | 1 | 2.2 | -7.8 | 12.2
CHUK (GeneID 1147) | 0 | 1.1 | 0.3 | 2
PRKAR1B (GeneID 5575) | 0 | -5.2 | -10.6 | 0.1
LOC401199 | 0 | 10.1 | 11.5 | 8.7
STC2 (GeneID 8614) | 0 | -3.5 | -11 | 4.1
PMAIP1 (GeneID 5366) | 0 | 7.6 | 4.1 | 11.2
KPTN (GeneID 11133) | 1 | 8.9 | 13.8 | 4
SLC8B1 (GeneID 80024) | 0 | 2.6 | -6 | 11.3
SPCS3 (GeneID 60559) | 0 | 5 | -2.1 | 12
CD7 (GeneID 924) | 0 | -4.3 | 12.1 | -20.8
FAM149A (GeneID 25854) | 1 | 14 | 18.1 | 9.9
HSPA13 (GeneID 6782) | 0 | 2.9 | 3.2 | 2.6
LOC389671 | 0 | -5.5 | -2.7 | -8.2
LOC387712 | 1 | 8 | 17.2 | -1.2
PSG4 (GeneID 5672) | 0 | -3 | -2.8 | -3.1
FREM2 (GeneID 341640) | 2 (active) | 23.4 | 33.3 | 13.5
ARHGAP32 (GeneID 9743) | -1 | -15.6 | -10.3 | -20.9
PBRM1 (GeneID 55193) | 0 | 11.4 | 19.7 | 3.1
STARD9 (GeneID 57519) | 0 | -1.3 | -4.4 | 1.8
LRRC8B (GeneID 23507) | 1 | 22.8 | 30.1 | 15.5
FOXD4 (GeneID 2298) | 1 | 35.3 | 40.5 | 30.1
NTM-AS1 (GeneID 101929637) | 0 | 1.5 | -7.8 | 10.9
MAST2 (GeneID 23139) | 0 | 14.6 | 42.4 | -13.2
MEGF10 (GeneID 84466) | 0 | 12.8 | 18.4 | 7.2
KIAA0830 | 0 | -0.9 | -2 | 0.3
MYBPH (GeneID 4608) | 0 | 11.6 | 26.7 | -3.5
CITED1 (GeneID 4435) | -1 | -15.9 | -26.5 | -5.4
EIF2S2 (GeneID 8894) | 0 | -3.9 | 2.3 | -10.1
PNLIPRP3 (GeneID 119548) | 0 | 9.8 | 14.7 | 4.9
HIP1 (GeneID 3092) | -1 | -13.3 | -17.4 | -9.3
UNC93B1 (GeneID 81622) | 0 | 8.9 | 10.1 | 7.7
PLAG1 (GeneID 5324) | 0 | 2 | -5.1 | 9.2
ZDHHC13 (GeneID 54503) | 1 | 8.6 | 5.4 | 11.9
LRRC40 (GeneID 55631) | -1 | -12.7 | -12.9 | -12.4

As entered above:
SPCS3 (GeneID 60559), protection from cisplatin (shift in death), siRNA D (%) = 12
Entry for LOC401199 in “two-siRNA summed score (-2 to +2)”: 0
Value for FREM2 (GeneID 341640) under “two-siRNA summed score (-2 to +2)”: 2 (active)
Value for CITED1 (GeneID 4435) under “mean protection from cisplatin (shift in death) (%)”: -15.9
